# Results taken from PubChem BioAssay AID493014 (National Center for Advancing Translational Sciences (NCATS), 2011).
# The other results are listed elsewhere or left out. Further columns of the screen follow, without active or inactive calls. Most of these compounds were active or inconclusive in the main read-out, so they are no random draw. The note in brackets gives the kind of curve behind each potency; many fits are weak.
# Experiment: qHTS Assay to Find Inhibitors of Chronic Active B-Cell Receptor Signaling
# Conditions: ABC-DLBCL IkBa-CBG/CBR reporter, luminescence ratio (green luciferase fused to IkBa over red control in TMD8 lymphoma cells), 4 h
# Procedure, shortened: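 Doxycycline induced both beetle luciferases in TMD8 lymphoma cells; IKK-driven degradation limits the IkappaBalpha-fused green signal, while red luminescence normalises for cell number and nonspecific effects. Compounds tested up to 46 uM, 4 hrs.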
# [1] = measured here: CBR red luminescence, cell number
# [2] = measured here: IkBa-CBG green luminescence
Compound,AC50 [1],AC50 [2]
O=C(COc1ccccc1)N1CCN=C1SCc1ccc(F)cc1,"5.01 µM [falling, partial curve, poor fit]",–
O=C(NNc1ccccc1)/C(=C\c1cccnc1)NC(=O)c1ccccc1,"35.5 µM [rising, single point]",–
COc1ccc(C(C)NC(=S)NC2CCCC2)cc1OC (stereo not given),"5.17 µM [falling, partial curve, poor fit]",–
N#Cc1nc(-c2ccc(OCc3ccccc3)cc2)oc1NCc1ccco1,"3.55 µM [rising, partial curve, poor fit]",–
O=C(NC1CC1)c1sc2cc([N+](=O)[O-])ccc2c1Cl,"7.31 µM [rising, partial curve, poor fit]",–
COc1ccc(CC(=O)c2ccc(OC)c(OC)c2)cc1,"2.59 µM [rising, partial curve, poor fit]",–
COc1cc(/C=C2\SC(=Nc3c(C)n(C)n(-c4ccccc4)c3=O)NC2=O)ccc1O,"4.11 µM [rising, single point]",–
Cc1ccc(C2OC34CCCCCC3C(C#N)(C(=N)O4)C2(C#N)C#N)cc1 (stereo not given),"18.4 µM [falling, partial curve]",–
COC(=O)c1sc(NC(=O)c2cc(C)on2)nc1C,"10 µM [falling, partial curve]",–
Cc1ccsc1/C=N/n1c(C2CCCCC2)n[nH]c1=S,"23.1 µM [rising, single point]",–
O=C(Nc1ccc(-c2cn3ccsc3n2)cc1)c1ccc(F)c(S(=O)(=O)N2CCOCC2)c1,"29.1 µM [falling, single point]",–
Cc1ccc(-c2nc(CS(=O)CC(=O)NCc3ccc(Cl)cc3)c(C)o2)cc1 (stereo not given),"0.411 µM [rising, full curve, poor fit]",–
O=C(Nc1ccc2c(c1)OCO2)c1cccc(Cl)c1,"18.4 µM [falling, single point]",–
Cc1cc(NC(=O)c2ccco2)ccc1NC(=O)c1ccco1,"44.7 µM [rising, partial curve, poor fit]",–
CC1CN(C(=S)Nc2ccc(Cl)cc2)CC(C)O1 (stereo not given),"20 µM [rising, single point]",–
COC(=O)c1cc(S(=O)(=O)N2CCN(c3ccc([N+](=O)[O-])cc3)CC2)c[nH]1,"5.01 µM [falling, full curve]",–
CCOC(=O)c1ccc(NC(=O)CC2COc3ccccc3O2)cc1 (stereo not given),"18.4 µM [rising, single point]",–
Cc1cc(C)nc(NC(=O)C(c2ccccc2)c2ccccc2)n1,"2.51 µM [falling, full curve, poor fit]",–
Cc1cc(C(F)(F)F)n2ncc(-c3ccc(F)cc3)c2n1,"0.731 µM [rising, full curve, poor fit]",–
COc1ccc(CC(=O)OCC(=O)c2c[nH]c3ccccc23)cc1,"5.8 µM [rising, partial curve, poor fit]","29.1 µM [falling, partial curve, poor fit]"
CC(OC(=O)c1ccncc1)C(=O)Nc1cc(S(=O)(=O)N2CCCCC2)ccc1Cl (stereo not given),"0.461 µM [rising, partial curve, poor fit]",–

# Reprinted at random: 3 entries already listed
Compound,AC50 [1],AC50 [2]
COc1ccc(CC(=O)c2ccc(OC)c(OC)c2)cc1,"2.59 µM [rising, partial curve, poor fit]",–
Cc1cc(C(F)(F)F)n2ncc(-c3ccc(F)cc3)c2n1,"0.731 µM [rising, full curve, poor fit]",–
CCOC(=O)c1ccc(NC(=O)CC2COc3ccccc3O2)cc1 (stereo not given),"18.4 µM [rising, single point]",–

# Molecules from the list above that contain two or more sulfur atoms, in the order listed:
Compound,AC50 [1],AC50 [2]
Cc1ccsc1/C=N/n1c(C2CCCCC2)n[nH]c1=S,"23.1 µM [rising, single point]",–
O=C(Nc1ccc(-c2cn3ccsc3n2)cc1)c1ccc(F)c(S(=O)(=O)N2CCOCC2)c1,"29.1 µM [falling, single point]",–

# Continued:

Compound,AC50 [1],AC50 [2]
CCCCn1nc2cc(C(=O)NCc3ccccc3)ccc2c1OCC,"0.1 µM [rising, full curve, poor fit]",–
O=S(=O)(NCc1csc(-c2cccs2)n1)c1ccccc1,"3.16 µM [rising, partial curve, poor fit]",–
O=C(COC(=O)c1ccc2c(c1)S(=O)(=O)N=C1CCCCCN12)NCc1cccs1,"0.112 µM [rising, full curve, poor fit]",–
CC(C)c1cccc(C(C)C)c1OC(=O)NC(=O)c1c(F)cccc1F,"10 µM [falling, partial curve, poor fit]",–
COCC(=O)Nc1cc(Cl)ccc1C(F)(F)F,"2 µM [rising, partial curve]",–
CCCCCOc1ccc(/C(C)=N/NC2=NCCN2)cc1,"35.5 µM [falling, single point]",–
CC1CCc2sc(-c3n[nH]c(=S)o3)cc2C1 (stereo not given),"20 µM [falling, single point]",–
CCCc1nc(SCC(=O)N2CCc3ccccc32)c2c(=O)n(C)c(=O)n(C)c2n1,"36.6 µM [rising, partial curve, poor fit]",–
COC(=O)Cc1c(C)c2ccc(OCC(=O)N(C)C)cc2oc1=O,"29.1 µM [rising, single point]",–
COc1ccccc1OCCC(=O)OCC(=O)Nc1ccc(Br)cc1F,"10 µM [falling, partial curve]",–
Cc1occc1-c1nnc(SCC(=O)N2CCOCC2)n1CC(C)C,"6.51 µM [rising, partial curve, poor fit]",–
CC(NC(=O)c1cc2c(s1)CCCC2)C(C)(C)C (stereo not given),"6.51 µM [falling, single point]",–
O=C(OC1CCOC1=O)c1ccccc1C(=O)c1ccc(Cl)c([N+](=O)[O-])c1 (stereo not given),"0.92 µM [falling, full curve, poor fit]",–
O=C(COc1ccc(S(=O)(=O)N2CCCC2)cc1Cl)NCc1ccccn1,"12.6 µM [rising, single point]",–
O=C(NCCC1=CCCCC1)C1CCCN(S(=O)(=O)c2ccccc2)C1 (stereo not given),"32.6 µM [falling, single point]",–
CC1(C)CC(=O)C2=C(C1)Oc1nc3ccccc3cc1C2C(C#N)C#N (stereo not given),"6.31 µM [falling, full curve]",–
COc1cccc(C(=O)N2CCN(Cc3cc(Br)ccc3OC)CC2)c1,"23.1 µM [falling, partial curve, poor fit]",–
O=C(O)c1ccc(CSc2nnc(-c3ccco3)o2)cc1,–,"16.4 µM [falling, partial curve]"
CCCOc1ccc(C(CC(=O)O)NC(=O)c2sc3ccccc3c2Cl)cc1 (stereo not given),"11.2 µM [falling, partial curve, poor fit]",–
CCC(CC)COC(=O)C1=C(C)NC(=O)NC1c1ccc(N(C)C)cc1 (stereo not given),"35.5 µM [rising, single point]",–
O=C(N/C(=C\c1cccnc1)c1nc2ccccc2[nH]1)c1cccc(Br)c1,"23.1 µM [rising, partial curve, poor fit]","23.1 µM [falling, partial curve, poor fit]"

Compound,AC50 [1],AC50 [2]
Cn1c(N)c(C(=O)COC(=O)Cc2cccs2)c(=O)n(C)c1=O,"1.03 µM [falling, partial curve, poor fit]",–
Cc1ccc(NC(=O)CSc2nc(NS(=O)(=O)c3ccc(C)cc3)cc(=O)[nH]2)cc1,"6.51 µM [falling, partial curve, poor fit]",–
O=C1CC(C(=O)N2CCCc3ccccc32)CN1c1ccc(F)cc1 (stereo not given),"3.16 µM [rising, partial curve, poor fit]",–
CC1(C)CC(=O)C(C=Nc2ccc(C(=O)c3ccccc3)cc2N=CC2=C(O)CC(C)(C)CC2=O)=C(O)C1,"35.5 µM [falling, single point]",–
O=C(Nc1cc(Cl)ccc1O)c1cc(-c2ccco2)on1,"11.2 µM [falling, partial curve, poor fit]",–
Cc1nc(SCc2nc3ccc(C(F)(F)F)cc3[nH]2)c2oc3ccccc3c2n1,"3.66 µM [rising, single point]",–
CC(C)(CNC(=O)CCNC(=O)c1ccc(Br)cc1)N1CCOCC1,"23.1 µM [rising, partial curve, poor fit]",–
COc1ccc(C(=O)N2CC3(CC(c4cccc(NC(=O)COc5ccc(Cl)cc5)c4)=NO3)C[C@@H]2C(N)=O)cc1 (stereo not given in full),"22.4 µM [falling, single point]",–
CCN(CC)CC(C)(C)COC(=O)c1oc2ccccc2c1C,"3.98 µM [rising, partial curve, poor fit]",–
COC(=O)c1c(NC(=S)NN2CCN(C)CC2)sc2c1CCC(C)C2 (stereo not given),"35.5 µM [falling, single point]",–
CC(=O)Nc1ccc(NC(=O)C(C)OC(=O)c2ccc(C)s2)cc1 (stereo not given),"25.1 µM [rising, partial curve, poor fit]",–
CCCCN(C(=O)c1cnccn1)c1c(N)n(CCC)c(=O)[nH]c1=O,"3.26 µM [rising, single point]",–
NC(=O)NC(=O)C(c1ccccc1)N1CCN(S(=O)(=O)Cc2ccccc2)CC1 (stereo not given),"23.1 µM [rising, partial curve]",–
CCOC(=O)c1sc2nc(SCC(=O)N(CC)CC)n(CCCN3CCCC3=O)c(=O)c2c1C,"20 µM [falling, partial curve]",–
O=C(Nc1nc2c(s1)CN(Cc1ccccc1)CC2)c1c(F)cccc1F,"11.2 µM [rising, single point]",–
CC1C/C(=N\NC(=O)c2ccc(NS(=O)(=O)c3ccc(Br)cc3)cc2)CC(C)(C)C1 (stereo not given),"14.6 µM [falling, partial curve, poor fit]",–
COc1cccc(CNC(=O)c2nnn(-c3ccc(OC(F)(F)F)cc3)c2N)c1,"0.82 µM [rising, full curve, poor fit]",–
O=C(Nc1ccccn1)c1ccc2ccccc2c1O,"11.2 µM [falling, partial curve]",–
CCN1CCN(C(=O)/C=C/c2cccc(Cl)c2)CC1,"22.4 µM [rising, single point]",–
O=C(Nc1cccc2ccccc12)/C(Cl)=C/c1ccccc1,"16.4 µM [falling, partial curve, poor fit]",–
O=C(OCC(=O)N1CCN(C(=O)c2ccco2)CC1)c1ccccc1NCCO,"16.4 µM [falling, single point]",–
